# Source: PubChem BioAssay AID2685 (National Center for Advancing Translational Sciences (NCATS), 2010)
# Out of some 320,000 compounds screened, about 2,100 (0.66%) were called active. Inconclusive means that the source gave no clear call. Such entries were picked first, then a sample of the others. Calls follow the shape of the dose curve; as a rule, active = well fitted inhibition curve with a large enough effect in the signal ratio, with a control signal flat (not every such curve was filed as active); inconclusive = small, poorly fitted or top-dose-only effect, or effect the other way, or a change in a side signal; inactive = flat fitted curve, though single readings scatter; the % refers to the signal ratio. Potencies of inconclusive entries are doubtful fits and often do not repeat.
# Test: qHTS Assay for Lipid Storage Modulators in Drosophila S3 Cells
# Details: BODIPY lipid droplet fluorescence, 18-24 h, cells fed with added oleic acid; lipid storage change, negative = inhibition: at 46.1 µM (top of the series) unless noted
# Procedure, shortened: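 Drosophila S3 cells got compounds at several concentrations plus oleic acid (400 uM solution). Laser-scanning cytometry with 488 nm excitation read lipid droplets at 500-530 nm and cells at 575-640 nm. Percent activity was relative to 20 uM Triacsin C.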
# % is scaled to controls: 0 for no effect and ±100 for the full control effect; potency is read from the fitted curve at half-maximal effect.
Compound,"lipid storage change, negative = inhibition",Potency
O=C(NCc1ccccc1)c1nnc(CS(=O)(=O)c2ccccc2)o1,inconclusive: 35.6%,–
O=C(Cn1nnc(-c2ccccc2NC(=O)c2ccco2)n1)NC1CCCCC1,inconclusive: 106%,–
CCOc1ccc(OCCSc2nc3ccccc3[nH]2)cc1,–,"inconclusive: 18.4 µM [falling, single point]"
Cc1nc2ccccc2cc1OCc1ccccc1,inconclusive: -22.1%,–
Cc1ccc(C2=NN(C(=O)CN3C(=O)c4ccccc4S3(=O)=O)C(c3ccco3)C2)cc1 (configuration not stated),inconclusive: 16.1%,–
CN1C(=S)SC(C)(C)C1NO (configuration not stated),inactive,–
CCC1(C)CC(=O)N(c2ccc(F)c(Cl)c2)C(=O)C1,inconclusive: -1.95%,–
COc1ccc(-n2c(=O)c(CCC(=O)N3CCC(C)CC3)nc3ccccc32)cc1,–,"inconclusive: 2.59 µM [falling, partial curve, poor fit]"
COc1ccc(OC)c(NC(=O)CSc2nnc(N)s2)c1,inconclusive: 85.5%,–
CC(C)C(OC(=O)c1cccs1)C(=O)NCc1ccco1 (configuration not stated),inconclusive: -7.84%,–
COc1ccc(-c2ccnc3c(Br)c(C)nn23)cc1,inconclusive: -48.1%,–
O=C(O)CSc1nnnn1C1CCCCC1,inactive,–
CCOc1ccc(NC(=O)c2ccccc2CO)cc1,–,"inconclusive: 0.259 µM [activator, full curve, poor fit]"
Cc1ccc(NC(=S)NC2CCCCC2)cc1S(=O)(=O)N(C)C,inconclusive: 18.8%,–
COc1cc(/C=C(\C#N)c2nc3ccccc3s2)cc([N+](=O)[O-])c1O,inconclusive: 43.5%,–
Cn1c(N)c(C(=O)c2ccc(Cl)cc2)c(=O)n(C)c1=O,inconclusive: 17.2%,–

Compound,"lipid storage change, negative = inhibition",Potency
Cc1ccc(C(=O)Nc2cccc([N+](=O)[O-])c2)cc1S(=O)(=O)Nc1ccc(NC(=O)c2ccccc2)cc1,–,"inconclusive: 0.164 µM [activator, full curve, poor fit]"
CN(/C(=N/S(=O)(=O)c1ccccc1)c1ccccc1)S(=O)(=O)c1ccccc1,inconclusive: 35.2%,–
COc1ccc(N(CC(=O)N2CCN(c3ccccc3F)CC2)S(=O)(=O)c2c(C)noc2C)cc1,–,"inconclusive: 29.1 µM [falling, single point]"
CCS(=O)(=O)Nc1ccc(C2=NN(C(=O)c3ccccc3)C(c3cccs3)C2)cc1 (configuration not stated),–,"inconclusive: 4.11 µM [activator, full curve, poor fit]"
Cc1ccc(C)c(SCC(=O)Nc2cccc(S(=O)(=O)N3CCOCC3)c2)c1,inconclusive: 3.91%,–
O=C(OCC(=O)N1CCCc2ccccc21)c1cccc(C(F)(F)F)c1,inconclusive: 78.9%,–
CCC(=O)Nc1ccc(NC(=O)CCc2ccccc2)cn1,inconclusive: 17.2%,–
Cc1c(C(=O)c2ccc(F)cc2)c2ccccn2c1CCc1ccccn1,–,"inconclusive: 3.66 µM [rising, single point]"
COC(=O)c1ccc(S(=O)(=O)NCc2cccc(OC)c2)n1C,inconclusive: 30.9%,–
COCCN(C(=O)c1csnn1)C(C(=O)NC1CCCCC1)c1ccccc1F (configuration not stated),–,"inconclusive: 0.0651 µM [falling, full curve, poor fit]"
CC(C)C1(C)C(=O)N=C2c3ccccc3C(=O)N21 (configuration not stated),–,"inconclusive: 0.058 µM [falling, full curve, poor fit]"
COC(=O)c1c(NC(=O)C(C)(C)C)sc2c1CCN(Cc1ccccc1)C2,–,"inconclusive: 29.1 µM [falling, single point]"
COc1ccc(C(=O)N/N=C\c2ccoc2)cc1,inconclusive: -19.2%,–
O=C(Nc1ccccc1-c1nnn(CC(=O)N2CCCc3ccccc32)n1)c1ccco1,–,"inconclusive: 3.26 µM [activator, single point]"
O=C(c1c(F)cccc1F)N1CCCC1,inactive,–
COc1cc(/C=C2\SC(=Nc3ccc(O)cc3)NC2=O)cc(OC)c1O,inconclusive: -11.5%,–

# Part of the list above, set out differently:
Compound	lipid storage change, negative = inhibition	Potency
Cc1c(C(=O)c2ccc(F)cc2)c2ccccn2c1CCc1ccccn1	–	inconclusive: 3.66 µM [rising, single point]
COC(=O)c1ccc(S(=O)(=O)NCc2cccc(OC)c2)n1C	inconclusive: 30.9%	–
